Experimental findings from the supplement of paper PMC3682954 are described below.

The test system of the test is RAW 264.7. Description: cell viability (MTT) relative to vehicle control; higher = more viable cells. As to conditions: stimulus: HMGB1 5 ug/ml, 18 h.
The mark [1] stands for this setting: compound concentration: 1 ug/ml.

The structures appear in SMILES notation. Structures can show the parent of a compound that is named as a salt. ± gives the standard deviation of the averaged measurements. The list shows a part of the results. Repeats are few or missing, and single values can be far off.

As usually defined, the cell viability is a read-out of living cells in per cent, often relative to untreated cells. `Nc1nc2c(ncn2[C@H]2C[C@H](O)[C@@H](COP(=O)(O)O)O2)c(=O)[nH]1` [2'-Deoxyguanosine 5'-monophosphate, sodium salt hydrate]: the cell viability under setting [1] worked out at 101%.
In the case of `CCCOc1ccc(C(=O)OCCN(CC)CC)cc1N` [Proparacaine hydrochloride], where the note is “compound concentration: 3 uM”, the cell viability was found to be 96.7%.
`CCN(CC)CCOCCOC(=O)C(CC)(CC)c1ccccc1`: the cell viability (compound concentration: 3 uM) amounted to 106%.
Same read-out and setting: next, `CC(N)(Cc1ccc(O)c(O)c1)C(=O)O` (racemic) [(±)-3-(3,4-dihydroxyphenyl)-2-methyl-DL-alanine]: 101%.
Turning to `COc1cc(OC)c(C(=O)/C=C/c2ccc(O)c(OC)c2)c(OC)c1` [4-Hydroxy-2',3,4',6'-tetramethoxychalcone], the cell viability under setting [1] was determined as 94.6%.
On to `CCCCC/C=C\C/C=C\C/C=C\C/C=C\CCCC(=O)O` [Arachidonic acid], for which the cell viability under setting [1] stood at 123%.
Still for that read-out and setting: next, `O=c1c(-c2ccc(O[C@@H]3O[C@H](CO)[C@@H](O)[C@H](O)[C@H]3O)cc2)coc2cc(O)cc(O)c12`: 104%; `NC(CCC(=O)O)C(=O)O` (stereo not drawn) [D(-)-Glutamic acid]: 106%.
On to `NC(=O)c1cccc(N)c1` [3-aminobenzamide], for which the cell viability (compound concentration: 3 uM) worked out at 102%.
On the same count and under the same terms, then `COCCc1ccc(OCC(O)CNC(C)C)cc1` (racemic) [(±)-Metoprolol (+)-tartrate], with 117%.
On to `C[S+]([O-])CCC(N)C(=O)O` (racemic) [DL-Methionine sulfoxide], for which, under setting [1], the cell viability stood at 100%.
Consider `C=CCSCC1Nc2cc(Cl)c(S(N)(=O)=O)cc2S(=O)(=O)N1` (configuration not stated) [Althiazide], for which, under “compound concentration: 3 uM”, the cell viability was found to be 128%.
In the case of `C=CCSCC1Nc2cc(Cl)c(S(N)(=O)=O)cc2S(=O)(=O)N1` (configuration not stated), for the setting “compound concentration: 3 uM”, the cell viability was determined as 106%.
In the case of `O=C(O)c1[nH]c(=O)[nH]c(=O)c1[N+](=O)[O-]` [5-Nitroorotic acid, potassium salt monohydrate], the cell viability under setting [1] amounted to 105%.
As for `CNC(=N)NCCC[C@H](N)C(=O)O` [NG-Monomethyl-L-arginine acetate], under “compound concentration: 3 uM”, the cell viability turned out to be 105%.
For the compound `O=C(O)C1=CCCN(CCON=C(c2ccccc2)c2ccccc2)C1` [NO-711 hydrochloride], for the setting “compound concentration: 3 uM”, the cell viability was found to be 106%.
On the same count and under the same terms, next, `Clc1ccc(N2CCN(Cc3cc4ccccn4n3)CC2)cc1`: 112%.
Still for that read-out and setting: then `CN(C)CC/C=C1/c2ccccc2COc2ccc(CC(=O)O)cc21` [Olopatadine hydrochloride], with 101%; and `CN(C)CC/C=C1/c2ccccc2COc2ccc(CC(=O)O)cc21` [Olopatadine], with 101%; and `CN(C)CC/C=C1/c2ccccc2COc2ccc(CC(=O)O)cc21`, with 98.3%.
Take `Nc1ncnc2n[nH]c(Nc3ccc(F)cc3)c12`: the cell viability (compound concentration: 3 uM) came out at 110%.
In the case of `c1ccc(CN(CC2=NCCN2)c2ccccc2)cc1` [Antazoline hydrochloride], the cell viability (compound concentration: 3 uM) stood at 103%.
Same read-out and setting: then `c1ccc(CN(CC2=NCCN2)c2ccccc2)cc1`, with 108%; and `CC(=O)N(CC(O)CN(C(C)=O)c1c(I)c(C(=O)NCC(O)CO)c(I)c(C(=O)NCC(O)CO)c1I)c1c(I)c(C(=O)NCC(O)CO)c(I)c(C(=O)NCC(O)CO)c1I` (configuration not stated) [Iodixanol], with 85.1%; and `CC(C(=O)O)c1ccc(C(=O)c2ccccc2)s1` (configuration not stated) [Tiaprofenic acid], with 95.1%.
As for `C#CCN(C)CCCOc1ccc(Cl)cc1Cl` [Clorgyline hydrochloride], the cell viability (compound concentration: 3 uM) turned out to be 104 ± 6.9%.
On the same count and under the same terms, then `C#CCN(C)CCCOc1ccc(Cl)cc1Cl`, with 108%; and `CC(C)(CO)Cc1cc(C(C)(C)C)c(O)c(C(C)(C)C)c1`, with 119%.
As to `O=C(O)CN(CCN(CC(=O)O)CC(=O)O)CCN(CC(=O)O)CC(=O)O` [Diethylenetriaminepentaacetic acid], the cell viability (compound concentration: 3 uM) is 96%.
Same read-out and setting: next, `O=C(O)CN(CCN(CC(=O)O)CC(=O)O)CCN(CC(=O)O)CC(=O)O`: 112%; `O=C(O)CN(CCN(CC(=O)O)CC(=O)O)CCN(CC(=O)O)CC(=O)O` [Pentetic acid]: 123%.
For `CCCn1cnc2c1c(=O)n(CCCCC(C)=O)c(=O)n2C`, the cell viability (compound concentration: 3 uM) amounted to 114%.
As for `CCCn1cnc2c1c(=O)n(CCCCC(C)=O)c(=O)n2C` [Propentofylline], for the setting “compound concentration: 3 uM”, the cell viability stood at 102%.
On the same count and under the same terms, next, `CCCCCCCCCCCCCCSCC(=O)O` [Tetradecylthioacetic acid]: 111%; `CC(=O)/C(C)=N/O` [2,3-Butanedione monoxime]: 112%; `O=[N+]([O-])c1cc2nc(O)c(O)nc2cc1[N+](=O)[O-]`: 111%.
Still for that read-out and setting: next, `CC(C)NCC(O)c1cc(O)cc(O)c1` (configuration not stated): 104%.
On the same count and under the same terms, then `CC(C)NCC(O)c1cc(O)cc(O)c1` (configuration not stated) [Metaproterenol hemisulfate], with 104%.
Regarding `CC(C)NCC(O)c1cc(O)cc(O)c1` (configuration not stated) [Metaproterenol sulfate, orciprenaline sulfate], the cell viability (compound concentration: 3 uM) was 87.1%.
For `Cc1cn(C2CC(O)C(COP(=O)(O)OP(=O)(O)OP(=O)(O)O)O2)c(=O)[nH]c1=O` (configuration not stated) [Thymidine 5'-triphosphate sodium salt], under setting [1], the cell viability turned out to be 106%.
In the case of `Cn1c(=O)c2c(ncn2CCO)n(C)c1=O` [Etofylline], the cell viability (compound concentration: 3 uM) was found to be 103%.
On to `O=C(CCCN1CCC(O)(c2cccc(C(F)(F)F)c2)CC1)c1ccc(F)cc1` [Trifluperidol], for which the cell viability (compound concentration: 3 uM) was found to be 97.4%.
The same measure, in the same setting: then `O=C(CCCN1CCC(O)(c2cccc(C(F)(F)F)c2)CC1)c1ccc(F)cc1` [Trifluperidol hydrochloride], with 108%.
Consider `Nc1ccn([C@H]2C[C@H](O)[C@@H](COP(=O)(O)O)O2)c(=O)n1` [2'-Deoxycytidine 5'-monophosphate], for which, under setting [1], the cell viability was found to be 96.1%.
With `CN/C(=N\c1ccc(C2=NNC(=O)CC2C)cc1)NC#N` (configuration not stated) [Siguazodan], the cell viability (compound concentration: 3 uM) was found to be 98.2%.
On the same count and under the same terms, then `COc1ccccc1N1CCN(CCCNc2cc(=O)n(C)c(=O)n2C)CC1`, with 102 ± 6.7%; and `COc1ccccc1N1CCN(CCCNc2cc(=O)n(C)c(=O)n2C)CC1` [Urapidil hydrochloride], with 110 ± 5.5%; and `CCN(CC)Cc1cc(Nc2ccnc3cc(Cl)ccc23)ccc1O` [Amodiaquin dihydrochloride dihydrate], with 98.4%.
For the compound `CCN(CC)Cc1cc(Nc2ccnc3cc(Cl)ccc23)ccc1O`, the cell viability (compound concentration: 3 uM) came out at 95.8%.
As for `COCC(=O)O[C@]1(CCN(C)CCCc2nc3ccccc3[nH]2)CCc2cc(F)ccc2[C@@H]1C(C)C` [Mibefradil dihydrochloride], the cell viability (compound concentration: 3 uM) was found to be 105%.
As for `CCC(=O)OCC(=O)[C@@]1(OC(=O)CC)[C@@H](C)C[C@H]2[C@@H]3CCC4=CC(=O)C=C[C@]4(C)[C@@]3(Cl)[C@@H](O)C[C@@]21C`, where the note is “compound concentration: 3 uM”, the cell viability stood at 112%.
Same read-out and setting: next, `CCC(=O)OCC(=O)[C@@]1(OC(=O)CC)[C@@H](C)C[C@H]2[C@@H]3CCC4=CC(=O)C=C[C@]4(C)[C@@]3(Cl)[C@@H](O)C[C@@]21C` [Beclomethasone dipropionate]: 87.2%.
